68 sequences from PubChem BioAssay AID1347426 (Functional Genomics Laboratory (NCATS/FGL), 2020) can be followed below.

The whole screen tested about 31,000 sequences, of which about 1,400 (4.5%) were called active.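 How the source made its calls: active means median seed-adjusted z-score above 1 or below -1; inactive means the rest.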 The list shows a part of the results.

This test can be described thus: Novel Modifiers of Survival Motor Neuron (SMN) Protein: Gene Identification via Genome-wide siRNA Screen.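 Further: luminescence tracks full-length SMN protein made from the SMN2 reporter.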 Particulars: HEK293T SMN2-luciferase reporter, siRNA knockdown, 72 h; actives lie on both sides. A digest of the protocol:
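HEK293T cells stably carrying an SMN2 promoter/splicing cassette–luciferase reporter were reverse-transfected with 1 pmol siRNA per well (druggable-genome library, 3 siRNAs per gene) and grown 72 h at 37 °C. Luminescence, normalized to negative-control siRNA and log10-transformed, was scored as MAD.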
Background: A reporter such as luciferase makes a cellular process visible.
For the sequence GCAUCAUCCAGAACACGGATT against ARHGEF18, the median seed-adjusted z-score was inactive: 0.586.

As to GCGGCAUGCUGGUAAAUCATT against PRDM10, the median seed-adjusted z-score is inactive: 0.344.

AGAUCGACAUGUUUCUCAATT against ZBED1: the median seed-adjusted z-score was inactive: 0.0567.

Take GGACAGACUCGUCUAAUCATT against PLAA: the median seed-adjusted z-score was inactive: -0.192.

With CACAGGAAAUUGUUCGGCATT against LIN9, the median seed-adjusted z-score was inactive: 0.

With CUUACUCUUUAGCUCAAAATT against PCDHB1, the median seed-adjusted z-score was inactive: 0.342.

Regarding GAGUCUGUUUUACGACAAATT against TMPRSS11D, the median seed-adjusted z-score is inactive: -0.0643.

Regarding ACAAAUGUCUGAAAGUCUUTT against ZNF181, the median seed-adjusted z-score is inactive: -0.154.

Turning to AGGUCUCAGAUGAAGCGGUTT against PPM1B, the median seed-adjusted z-score was inactive: 0.

Turning to GACAAAACAAUGAAGCAGATT against GFM2, the median seed-adjusted z-score is inactive: 0.26.

Take GCAAUUCCCAAGAUCCUUATT against LAMB1: the median seed-adjusted z-score is active: 1.07.

For GGUCCUAAUCUGCAGCUGATT against COG4, the median seed-adjusted z-score is inactive: -0.508.

As to CCAUCUCGACUGACAAGAATT against TNNI3K, the median seed-adjusted z-score is inactive: -0.178.

For the sequence CACCAGGACCAGUUAAAAATT against MVD, the median seed-adjusted z-score was inactive: -0.561.

As for AAUUCUUCACGGUAAGAAATT against RAB6A, the median seed-adjusted z-score was inactive: 0.102.

For GAACCUGCUUUACUAUACATT against TRPV2, the median seed-adjusted z-score was inactive: -0.227.

As to CGACAAGUCUUCGACCUGATT against DGKZ, the median seed-adjusted z-score was inactive: 0.

Take GGACUGUUUUUGAUACUAATT against FKBP3: the median seed-adjusted z-score is inactive: -0.102.

Turning to GGACCACAGUCAAGACGAUTT against CEACAM1, the median seed-adjusted z-score was inactive: -0.211.

With CCGACGGGAUGGAAUAUUUTT against ZBTB39, the median seed-adjusted z-score was inactive: -0.209.

As to GAAUCAACUUAACAAAACATT against OXTR, the median seed-adjusted z-score is inactive: -0.557.

GAAUUGGAGAGGCAACAAATT against LMO7: the median seed-adjusted z-score was inactive: 0.417.

Take GCAACGCAGUUCGGAGUUATT against CADPS2: the median seed-adjusted z-score was inactive: -0.0213.

As for GGACAUAGGCACAAACUAATT against TNKS2, the median seed-adjusted z-score is inactive: 0.0545.

Consider GCUCAUCCUGUCUCAUAAATT against EIF2B3, for which the median seed-adjusted z-score is inactive: -0.271.

For the sequence GGCUGUAAACUGCGCAUCATT against APOBEC2, the median seed-adjusted z-score is inactive: 0.232.

Consider CACCUAUUUUGAAGGUAGATT against ZNF518A, for which the median seed-adjusted z-score was inactive: -0.252.

On to CCAUCACCAGAAUCGCUAUTT against P11, for which the median seed-adjusted z-score is inactive: 0.14.

On to CAUCCAGACCUGUUCCAAATT against SCG2, for which the median seed-adjusted z-score was inactive: 0.155.

With GGCACGAAAUGAGUCCUCATT against MSLN, the median seed-adjusted z-score was inactive: -0.344.

AGGCAGAUGUCGUCCCAAATT against PPIF: the median seed-adjusted z-score is inactive: 0.0719.

CAGUGCUGUUUGGACAAGATT against IKBKE: the median seed-adjusted z-score was inactive: 0.122.

Consider GGAACUAACUAUGUCGACATT against PCDHB2, for which the median seed-adjusted z-score is inactive: 0.

On to GAACCCAAGAAAUCAAUUATT against ZNF197, for which the median seed-adjusted z-score is inactive: -0.219.

With GCAUCGCUUUAAACUCGUATT against IFNGR1, the median seed-adjusted z-score is inactive: -0.279.

As to GAACUUAACCAGUGCAGAATT against IGF2BP2, the median seed-adjusted z-score is inactive: 0.281.

Turning to GGAUUUAUCAGAACCUUUATT against SLC25A15, the median seed-adjusted z-score was inactive: -0.0116.

For GGAAUAUUCUGACUAUAAUTT against UGT2B17, the median seed-adjusted z-score is inactive: -0.0203.

Turning to CAGCAUGCCUUGUACAGCATT against ANKIB1, the median seed-adjusted z-score is inactive: -0.00367.

On to GUACUUAGAGAGGCUCAAATT against DCI, for which the median seed-adjusted z-score is inactive: 0.469.

GCACUUACGUGAGUAAAUATT against LEFTY2: the median seed-adjusted z-score was inactive: -0.33.

In the case of GCUGUGCUAUGGGAGUUAATT against ADH1A, the median seed-adjusted z-score was inactive: 0.624.

As to CCCUAUAUCUGCAAAGUGUTT against ZIC3, the median seed-adjusted z-score was inactive: -0.183.

For CUCUUAUCCUUAGAUCCAATT against BBS10, the median seed-adjusted z-score is inactive: 0.298.

On to CAAUCAGCCGGAAAGAGAATT against PACSIN3, for which the median seed-adjusted z-score is inactive: -0.0145.

GGCGAAGUGUCCGACAGAATT against ZNF747: the median seed-adjusted z-score is inactive: 0.379.

Take GAUCAGUAGCCUUCAGAAATT against RSU1: the median seed-adjusted z-score is inactive: 0.176.

As for GGAAGUUUGUUGAAGGUCUTT against MDH1, the median seed-adjusted z-score was inactive: -0.154.

For the sequence CCUAUUACGUCAUCGAAUATT against PTPRS, the median seed-adjusted z-score is inactive: -0.433.

With CAGACAUUGGAGUGGAUUATT against BBOX1, the median seed-adjusted z-score is inactive: 0.152.

With CAACUGUGAUUAAUGAUCATT against PDE3A, the median seed-adjusted z-score is inactive: 0.291.

As for CAACGGCUACUGCAACGAATT against TNFAIP3, the median seed-adjusted z-score is inactive: 0.11.

As to CCGCCUUUUUACUAGAGAATT against SCN3A, the median seed-adjusted z-score was inactive: -0.0556.

Consider ACAGAUACCUUUUCAAGCATT against DMD, for which the median seed-adjusted z-score is inactive: -0.626.

Consider AGACCUUUCUGUCCACCAATT against ANGPT4, for which the median seed-adjusted z-score was inactive: 0.

Consider GGGACACUAUAUUCCAGAATT against PRKCD, for which the median seed-adjusted z-score is inactive: -0.236.

CCUCGAUCCUUAGUAAACATT against ZNF486: the median seed-adjusted z-score is inactive: 0.324.

On to AUAUAACUGCUGAUCUAGATT against SPCS3, for which the median seed-adjusted z-score is inactive: 0.417.

On to GAACUGUCAGGAUCAAGUATT against PDZD2, for which the median seed-adjusted z-score was inactive: -0.00167.

For UCAGGACUCUGGACAUUCATT against ADAM33, the median seed-adjusted z-score was inactive: -0.038.

For the sequence CCAACUUGCCCAAUCACAATT against GLI1, the median seed-adjusted z-score was inactive: -0.347.

On to GCAUAAGACGUGUGAUUGATT against TRMT5, for which the median seed-adjusted z-score was inactive: 0.

With CGUUCGCACAUUCCUUAUATT against KIF6, the median seed-adjusted z-score is inactive: -0.0396.

As to GAUCUUCUCAACUUACUGATT against ZNF266, the median seed-adjusted z-score is inactive: 0.426.

Take GGGUGAAAACGCAGCAGAATT against GH2: the median seed-adjusted z-score was inactive: 0.374.

Take UCAAUUAUGUGGCCAGGAATT against NUDT2: the median seed-adjusted z-score is inactive: 0.891.

As for GACUAGCCGAUGACCUCAATT against MKL1, the median seed-adjusted z-score was inactive: -0.138.

As for GCUGCGUAUGAAUCAGAUATT against DIS3L2, the median seed-adjusted z-score is inactive: -0.265.
